Experimental data reported in PubChem BioAssay AID1259415 (National Center for Advancing Translational Sciences (NCATS), 2018).
Screen size: about 410,000 compounds; about 18,000 (4.4%) were called active. The shares of active, inactive and inconclusive entries below differ from those in the screen. Cut-off read from the data, not from the text of the source: active = activity change below about -60%; inconclusive = no clear call, values can overlap the other calls; inactive = above about -39%. Some structures have more than one record in an assay (separate samples or runs), and their calls can disagree.

assay: qHTS Assay for inhibitors of the human cytomegalovirus (HCMV); details: HFF cells, HCMV-luciferase reporter, 72 h; at 57.5 µM; stronger effect = lower value
Method in brief: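 HFF cells seeded 16 h at 37C, treated with compounds, infected with luciferase-reporter HCMV at MOI 1 PFU/cell; luciferase read at 72 h post infection, normalized to buffer-only and Salinomycin controls.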
% is set by controls: 0 for no effect and ±100 for the full control effect.

Structure (SMILES) | activity change, negative = inhibition
O=C(CCc1ccc(S(=O)(=O)N2CCOCC2)cc1)Nc1nc(COc2ccccc2)cs1 | active: -92.5%
O=C(Cc1ccccc1)N/N=C/c1ccccn1 | active: -83.8%
O=C(NCc1ccco1)c1ccccc1-c1ccccc1 | active: -79.8%
CCC1C(=NO)C(CC)C(c2ccccc2)NC1c1ccccc1 (centres undefined) | active: -101%
COc1cccc(CNC(=O)CNS(=O)(=O)c2ccc3nc(C)sc3c2)c1 | inactive: -39.3%
O=C(C=Cc1cccs1)c1cccs1 | inconclusive: -42%
O=C(c1csc(Nc2ccccc2Cl)n1)N1CCCC1 | active: -93.2%
O=C(c1cc(-c2cccs2)on1)N1CCOCC1 | inactive: 63.4%
COc1ccc(C(=O)NC(=C(Cl)Cl)S(=O)(=O)c2ccc(C)cc2)cc1 | inactive: 35.3%
COc1cc(C(=O)Oc2ccccc2/C=N/NC(=O)c2ccc(C)c(Cl)c2)cc(OC)c1OC | active: -104%
C=CCOc1c(Cl)cc(CNc2ccc(N(C)C)cc2)cc1OC | inconclusive: -58.9%
CCOC(=O)NC(=O)/C(N=Nc1cccc(C(F)(F)F)c1)=C(\C)O | inconclusive: -42%
COc1ccccc1N1CCN(C(=O)c2ccc(CSc3ccccc3)cc2)CC1 | active: -92.4%
Cc1cc(/C=C2/C(=O)N(C)C(=S)N2C)ccc1N1CCCC1 | inactive: 22.3%
CCOc1cccc(CN2CCC(n3nccc3NC(=O)C3CCCC3)CC2)c1 | inconclusive: -42.9%
O=C(NCc1ccccc1)c1ccc(/C=N/O)nc1 | inactive: 18.2%
Cc1c(C)n(-c2ccccc2)c2ncnc(NCCCN(C)C)c12 | inconclusive: -41%
O=C(NC1CCCCCC1)c1ccc(=O)n(Cc2ccccc2)n1 | active: -65.6%
CCN(CC)S(=O)(=O)c1ccc(-c2nnc(SCC(=O)N3c4ccccc4CC3C)n2CC)cc1 (centres undefined) | inconclusive: -40.6%
CC(C)(C)N(Cc1ccccc1)C(=O)CCc1ccccc1 | inconclusive: -59.1%
Cc1cccc(-c2nc(CCNC(=O)c3ccco3)cs2)c1 | active: -68.2%
CCCn1cc(S(=O)(=O)CC(=O)Nc2ccc(OCC)cc2)c2ccccc21 | inactive: 19.5%
O=c1cc(Cl)c(-c2ccccc2)nn1Cc1ccc(Cl)cc1 | active: -64.5%

Structure (SMILES) | activity change, negative = inhibition
O=C(Nc1cccnc1)c1ccc([N+](=O)[O-])cc1Cl | inconclusive: -51.3%
CCCCNC(=O)CS(=O)Cc1nc(-c2cccc(Cl)c2)oc1C (centres undefined) | inactive: -5.2%
O=C(CNc1ccccc1-c1ccccc1)NCc1ccccc1 | inconclusive: -40.6%
CC(NC(=O)c1ccccc1F)C(=O)O (centres undefined) | inactive: 36.3%
Cc1ccc(-c2c(C)nn3c(N4CCOCC4)cc(C)nc23)cc1 | inconclusive: -41.7%
COCCN(Cc1cc2cc(C)ccc2[nH]c1=O)S(=O)(=O)c1ccc(Cl)cc1 | active: -92%
Cc1cccc(OCCOC(=O)Nc2ccccc2)c1 | inconclusive: -40.6%
CCC(C)Nc1nc(N)c([N+](=O)[O-])c(Nc2ccccc2OC)n1 (centres undefined) | inconclusive: -47.8%
CCCOc1ccccc1N/C(=N/c1nc(C)cc(C)n1)NC(=O)COc1ccc(OC)cc1 | inactive: -24%
CCOC(=O)c1c(-c2ccccc2Cl)csc1NC(=O)CSc1nc(C)cc(=O)[nH]1 | inconclusive: -42.7%
c1cc(-c2cnc3cccnn23)c2cccnc2c1 | active: -68.8%
COc1cccc(/C=N\n2c(C)nnc2C)c1OC | inactive: -6.74%
CCc1ccccc1N(C(=O)c1snc(C(N)=O)c1N)C(C(=O)NCC1CCCO1)c1c[nH]c2ccccc12 (centres undefined) | inconclusive: -50.3%
COc1ccc(-c2cc(-c3cccs3)c(C#N)c(SCC(=O)NCc3ccccc3OC)n2)cc1 | active: -61.1%
CC1CCCC(NC(=O)COC(=O)CCSc2ccccc2)C1C (centres undefined) | inconclusive: -45.2%
COc1ccccc1NC(=S)NCCc1ccc(F)cc1 | inconclusive: -53.4%
Cc1ccc(C)c(CN2C(=O)c3ccccc3S(=O)c3ccc(C(=O)N4CCC(C)CC4)cc32)c1 (centres undefined) | inconclusive: -56.3%
CCN1CCN(CCCNC(=O)c2cc3c(=O)n(CC)c4ccccc4c3s2)CC1 | inconclusive: -57.5%
CC(=O)N1CCOc2cc(S(=O)(=O)NCc3ccc(C)cc3)c(C)cc21 | inconclusive: -42.2%
Clc1cccc(Cl)c1Cl | inactive: -15.9%
CCOc1cnc(-c2c(-c3c(Cl)cccc3Cl)noc2C)o1 | active: -60.9%
Cc1c(C(=O)NNC(=S)NCc2ccc(Cl)cc2)oc2ccccc12 | inconclusive: -42.5%
COc1cccc(/C=N/NC(=O)c2nc(-c3ccccc3)cc(-c3ccccc3)n2)c1O | active: -97.2%

Structure (SMILES) | activity change, negative = inhibition
Cc1ccc(C)c2sc(NC(=O)c3ccc(S(=O)(=O)N4CCCC4)cc3)nc12 | inactive: 37.4%
C[C@H](CO)N1C[C@H](C)[C@@H](CN(C)Cc2ccc(C(=O)Nc3ccccc3N)cc2)Oc2c(NC(=O)C3CCCCC3)cccc2C1=O | inconclusive: -52.4%
Cc1ccc(-n2c(C)cc(C(=O)CSc3n[nH]c(N)n3)c2C)cc1 | active: -70.1%
O=S(=O)(c1ccc(-c2ccon2)s1)N1CCOCC1 | inconclusive: -46.4%
Cc1cccc(Nc2cc(C)c3c(O)cccc3n2)c1C | active: -65.4%
CCOC(=O)c1cnc2ccccc2c1Nc1cc(C(=O)O)ccc1C | inconclusive: -46.9%
O=C(Nc1ccc(-c2noc(CCc3ccccc3)n2)cc1)c1cccnc1 | inconclusive: -44.3%
C=C1C(=O)[C@]23C[C@H]1CCC2[C@@]1(C)C(C[C@@H]3O)[C@](C)(C(=O)O)CC[C@@H]1O (some centres undefined) | active: -81.2%
Cc1ccc(S(=O)(=O)N2CCOC23CCN(S(=O)(=O)c2c(C)cc(C)cc2C)CC3)cc1 | active: -98%
COCCCNC(=S)N1CCN(c2nc(-c3ccccc3)cs2)CC1 | active: -67.4%
C#CCN(C[C@@H]1[C@@H](OC(=O)NC2CC2)[C@@H](OC(=O)NC2CC2)Cn2c(=O)ccc(=O)n21)S(=O)(=O)c1ccc(C)cc1 | active: -96.3%
CCCCN(C)C(=O)C1CCC(CNS(=O)(=O)c2ccc3c(c2)CC(C)N3C(=O)C2CC2)CC1 (centres undefined) | inconclusive: -52%
C=CCNC(=O)c1onc(CSc2ccccn2)c1C(=O)NCC=C | inactive: -6.05%
COc1cc(C2CC(=O)c3c([nH]c(C(=O)OCC4CCCCC4)c3C)C2)cc(OC)c1OC (centres undefined) | inconclusive: -52.5%
Cc1ccc(S(=O)(=O)c2c(C)c(C)c(C)[nH]c2=O)cc1 | inconclusive: -41.8%
Cc1ccc(-c2cc(-c3ccc4c(c3)OCO4)c(C#N)c(N)n2)o1 | inactive: 50.7%
O=C(NCC(c1ccco1)N1CCCC1)c1sc2cc(F)ccc2c1Cl (centres undefined) | inconclusive: -48%
CC1(C)C(=O)NCCN1C(=O)CSc1nccc(-c2ccc(Br)cc2)n1 | inconclusive: -40.5%
O=C1[C@H](Cc2ccccc2)NCCCC[C@H](c2ccco2)N1Cc1ccccc1 | inactive: -16.4%
CC(C)(C)OC(=O)N1CCC(c2c(C(=O)N3CCN(C4CCCCC4)CC3)cnn2-c2ccccc2)CC1 | inconclusive: -43.4%
CCN(CC)c1ccc(Nc2nc(N3CCOCC3)c3ccccc3n2)cc1 | active: -96.2%
Cc1cc2c(cc1C)NC(c1nc3ccccc3[nH]1)C1=C(CC(C)(C)CC1=O)N2 (centres undefined) | active: -105%
COc1ccc(-n2nnc(-c3nc(-c4cccs4)no3)c2N)cc1OC | inactive: -0.392%

Another view of part of the listing above.
Structure (SMILES)	activity change, negative = inhibition
Cc1cccc(Nc2cc(C)c3c(O)cccc3n2)c1C	active: -65.4%
CCOC(=O)c1cnc2ccccc2c1Nc1cc(C(=O)O)ccc1C	inconclusive: -46.9%
O=C(Nc1ccc(-c2noc(CCc3ccccc3)n2)cc1)c1cccnc1	inconclusive: -44.3%
C=C1C(=O)[C@]23C[C@H]1CCC2[C@@]1(C)C(C[C@@H]3O)[C@](C)(C(=O)O)CC[C@@H]1O (some centres undefined)	active: -81.2%
Cc1ccc(S(=O)(=O)N2CCOC23CCN(S(=O)(=O)c2c(C)cc(C)cc2C)CC3)cc1	active: -98%
COCCCNC(=S)N1CCN(c2nc(-c3ccccc3)cs2)CC1	active: -67.4%
C#CCN(C[C@@H]1[C@@H](OC(=O)NC2CC2)[C@@H](OC(=O)NC2CC2)Cn2c(=O)ccc(=O)n21)S(=O)(=O)c1ccc(C)cc1	active: -96.3%
CCCCN(C)C(=O)C1CCC(CNS(=O)(=O)c2ccc3c(c2)CC(C)N3C(=O)C2CC2)CC1 (centres undefined)	inconclusive: -52%
C=CCNC(=O)c1onc(CSc2ccccn2)c1C(=O)NCC=C	inactive: -6.05%
COc1cc(C2CC(=O)c3c([nH]c(C(=O)OCC4CCCCC4)c3C)C2)cc(OC)c1OC (centres undefined)	inconclusive: -52.5%
Cc1ccc(S(=O)(=O)c2c(C)c(C)c(C)[nH]c2=O)cc1	inconclusive: -41.8%
Cc1ccc(-c2cc(-c3ccc4c(c3)OCO4)c(C#N)c(N)n2)o1	inactive: 50.7%
O=C(NCC(c1ccco1)N1CCCC1)c1sc2cc(F)ccc2c1Cl (centres undefined)	inconclusive: -48%
CC1(C)C(=O)NCCN1C(=O)CSc1nccc(-c2ccc(Br)cc2)n1	inconclusive: -40.5%
O=C1[C@H](Cc2ccccc2)NCCCC[C@H](c2ccco2)N1Cc1ccccc1	inactive: -16.4%
CC(C)(C)OC(=O)N1CCC(c2c(C(=O)N3CCN(C4CCCCC4)CC3)cnn2-c2ccccc2)CC1	inconclusive: -43.4%
CCN(CC)c1ccc(Nc2nc(N3CCOCC3)c3ccccc3n2)cc1	active: -96.2%
Cc1cc2c(cc1C)NC(c1nc3ccccc3[nH]1)C1=C(CC(C)(C)CC1=O)N2 (centres undefined)	active: -105%

Following part

Structure (SMILES) | activity change, negative = inhibition
Cc1cccc(C(=O)Nc2ccc(C(=O)N/N=C/c3cccnc3)cc2)c1 | inactive: -3.78%
O=C(O)CCc1ccc(-c2ccccc2)n1NC(=O)c1cccs1 | inactive: -34.5%
Cc1nc(CC(=O)Nc2cc(Cl)ccc2C)cs1 | inconclusive: -57.2%
CCOC(=O)C1CCN(/C=C2/C(=O)NC(=O)N(c3cccc(C)c3C)C2=O)CC1 | inconclusive: -49.7%
CN(C)CC[C@@H](c1ccc(Br)cc1)c1ccccn1 | inconclusive: -54.5%
Cc1cc(Cl)ccc1OCC(=O)NNC(=O)c1cnccn1 | inconclusive: -49.3%
CSc1snnc1-c1ccccc1 | inconclusive: -42.5%
COc1ccc(Cl)cc1NC(=O)CCS(=O)(=O)c1ccc(C)cc1 | inactive: -34.3%
Cc1ccc(S(=O)(=O)NC(=O)NCCc2ccccc2)cc1 | inconclusive: -41.7%
CC(=O)Nc1ccc(NC(=O)CSc2ccc3nnc(-c4ccccn4)n3n2)cc1 | inactive: -26.6%
C=CCn1c(COc2ccc(F)cc2)nnc1SCC(=O)NC1CCS(=O)(=O)C1 (centres undefined) | inactive: -19.7%
Cc1ccccc1NC(=S)Nc1cccc2cnccc12 | active: -65.3%
CC1CCc2c(sc3ncnc(SCC(=O)Nc4ccc(C(=O)O)cc4)c23)C1 (centres undefined) | inconclusive: -41.3%
O=C(Cc1ccsc1)N1CCN(S(=O)(=O)c2cc(C(F)(F)F)cc(C(F)(F)F)c2)CC1 | inconclusive: -40.7%
O=C(NCCC1=CCCCC1)c1cc(S(=O)(=O)N2CCOCC2)ccc1Cl | inconclusive: -42.3%
CCOC(=O)c1nn(-c2ccc(F)cc2)c2nc(-c3ccccc3)c(C#N)c(=O)n12 | inconclusive: -42.7%
COc1ccc(NC(=O)CN(C)CC(=O)Nc2ccc(Cl)cc2F)cc1 | inconclusive: -45.3%
Cc1n[nH]c(C)c1S(=O)(=O)N1CCCC(C(=O)Nc2ccc(Br)cc2)C1 (centres undefined) | inconclusive: -57.7%
COc1ccc(CCNC(=O)c2cc(C)nc3c2c(C)nn3-c2ccc(C)cc2)cc1OC | inactive: 2.63%
Cc1cc(Nc2ccccc2C)nc(-n2nc(C)cc2C)n1 | active: -68.6%
